# Data from the odorant receptor screen of Mainland et al. (2015).
# Chains of the proteins cited; added tags and fusions are not shown. Chains listed by the source or under a name are the forms on record and can include a tag or linker.
# pseudo, as listed by the source: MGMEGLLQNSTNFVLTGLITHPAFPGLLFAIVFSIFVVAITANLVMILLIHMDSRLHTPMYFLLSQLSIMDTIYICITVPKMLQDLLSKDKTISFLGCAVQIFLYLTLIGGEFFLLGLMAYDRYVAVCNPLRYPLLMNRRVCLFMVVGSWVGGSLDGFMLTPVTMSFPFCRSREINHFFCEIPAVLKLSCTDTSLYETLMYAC
# Where “and” joins values, the source holds several entries; their conditions need not be identical. Equal entries are not always repeated. The list shows a part of the results. Single wells; the ratio to wells without odorant was worked out here, and repeats agree poorly.
# Tests used:
# Assay in all cases: odorant receptor activation (CRE luciferase / Renilla) (fold of no-odor wells); higher = more activation
# Settings in all cases: 100 µM
# [1] = system: OR9K2 clone 1389
# [2] = system: OR9Q1 A2V clone 1713
# [3] = system: OR9Q2 C179R clone 1310
# [4] = system: OR9Q2 clone 1177
# [5] = system: OR9Q2 clone 1501
# [6] = system: pseudo clone 1035
# [7] = system: pseudo clone 1218
# [8] = system: pseudo clone 1380
# [9] = system: pseudo clone 1384
# [10] = system: pseudo clone 1417
SMILES,odorant receptor activation [1],odorant receptor activation [2],odorant receptor activation [3],odorant receptor activation [4],odorant receptor activation [5],odorant receptor activation [6],odorant receptor activation [7],odorant receptor activation [8],odorant receptor activation [9],odorant receptor activation [10]
CCCC(=O)O [butyric acid],0.246,0.803,1.19,1.24,1.06,1.35,1.16,0.282,0.189,0.306
O=CCc1ccccc1 [phenyl acetaldehyde],1.69,0.949,0.903,1.39,1.04,0.961,0.808,1.49,1.65,1.72
COc1ccccc1O [guaiacol],0.761,0.724,0.827 and 0.94,0.989,0.708 and 0.964,1.76,1.25,1.05,0.884,0.882
CCCCCOC(C)=O [n-amyl acetate],0.803,0.841,0.857,0.644,1.01 and 0.695,1.39,0.529,0.724,0.82,0.946
CC1=CCC(C(C)(C)O)CC1 (stereo not given) [terpineol],1.21,0.829,0.88,1.11,0.809,1.09,1.2,1.06,1.11,1.18
COc1cc(C)ccc1O [2-methoxy-4-methylphenol],2.4,0.662,0.923,0.829,1.34,1.59,1.12,1.09,1.12,0.957
CC12CCC(CC1)C(C)(C)O2 [cineole],0.198,0.879,1.1,0.994,0.959,0.745,0.929,0.258,0.157,0.219
C=CCSCC=C [diallyl sulfide],1.36,0.816,0.897,0.886,1.24,0.778,1.15,1.32,0.938,1.64
c1ccc(Oc2ccccc2)cc1 [diphenyl ether],1.01,0.969,1.13,1.01,0.949,0.848,0.929,1.08,0.914,1.25
CC(C)CCC(=O)O [4-methylvaleric acid],1.53,0.646,1.04,0.706,1.1,1.26,0.845,0.768,1.26,1.16
CCCCCCCCCCC=O [undecanal],1.01,1.05,0.825,0.893,1.02,1.1,0.892,0.94,1.27,1.06
CCC1(O)C2(C)CCC(C2)C1(C)C (stereo not given) [2-ethylfenchol],1.36,0.618,0.643,0.951,1.25,2.83,0.636,0.954,0.737,0.693
"CC1CCC(C(C)C)C(O)C1 (single isomer, unassigned; (+)) [(+)-menthol]",1.36,0.756,0.719,1.04,1.21,3.67,0.954,0.692,0.771,0.948
O=C1CCCCCCCCCCCCCCO1 [pentadecalactone],1.09,1,0.863,0.901,0.948,0.869,0.676,1.28,0.98,1.24
CCCCCCCCCC=O [decyl aldehyde],1.8,0.687,1.32,1.01,0.892,1.03,1.44,1.58,1.03,1.97
CCCCCCCC=O [octyl aldehyde],0.756,0.84,1.12,1.21,1.03,1.1,0.861,0.749,0.839,0.719
CC(C)C(=O)O [isobutyric acid],0.918,1.92,1.19 and 0.869,0.979,0.744 and 0.947,1.05,1.22,0.847,0.626,0.836
C=CCc1ccc(OC(C)=O)c(OC)c1 [eugenol acetate],1.86,1.81,1.23,1.8,1.64,1.64,1.47,1.74,1.56,2.38
O=C1CCCCCCCCCCCC(=O)OCCO1 [ethylene brassylate],1.8,0.898,1.25,1.89,1.01,1.57,1.99,2.29,1.58,2.23
CC/C=C\CCO [cis-3-hexen-1-ol],0.265,0.813,1.22,1.28,1.06,1.07,1.03,0.277,0.169,0.27
CCCCCCCOC(C)=O [heptyl acetate],0.931,0.705,0.98 and 0.893,0.912,0.706 and 1.05,1.94,1.02,1.2,0.96,1.05
CCCCCCCC=CC=O [2-decenal],2.88,0.915,0.722,0.83,1.53,14.4,1,1.65,0.908,1.19
C=CCc1ccc(OC)c(OC)c1 [eugenol methyl ether],1.79,0.57,1.12,1.63,1.38,1.19,1.34,1.45,1.39,2.35

# Part of the list above, tab-delimited:
SMILES	odorant receptor activation [1]	odorant receptor activation [2]	odorant receptor activation [3]	odorant receptor activation [4]	odorant receptor activation [5]	odorant receptor activation [6]	odorant receptor activation [7]	odorant receptor activation [8]	odorant receptor activation [9]	odorant receptor activation [10]
CCC1(O)C2(C)CCC(C2)C1(C)C (stereo not given) [2-ethylfenchol]	1.36	0.618	0.643	0.951	1.25	2.83	0.636	0.954	0.737	0.693
CC1CCC(C(C)C)C(O)C1 (single isomer, unassigned; (+)) [(+)-menthol]	1.36	0.756	0.719	1.04	1.21	3.67	0.954	0.692	0.771	0.948

# The listing continues.

SMILES,odorant receptor activation [1],odorant receptor activation [2],odorant receptor activation [3],odorant receptor activation [4],odorant receptor activation [5],odorant receptor activation [6],odorant receptor activation [7],odorant receptor activation [8],odorant receptor activation [9],odorant receptor activation [10]
CC(=O)OC(C)(C)C1CC=C(C)CC1 (stereo not given) [terpinyl acetate],0.931,0.713,0.808,1.22,1.04,1.27,1.07,1.11,1.02,0.982
CC(=O)OCC=C(C)CCC=C(C)C [geranyl acetate],1.24,0.94,0.963 and 0.977,1.01,1.14 and 1.27,2.25,0.892,1.73,1.28,1.07
COC(=O)c1ccccc1O [methyl salicylate],1.07,1.47,0.693,0.84,1.06,1.03,0.847,1.05,1.11,1.07
CCCCCC(=O)O [caproic acid],0.221,0.871,0.759,1.07,1.2,0.874,0.984,0.294,0.155,0.221
CC=Cc1ccc(O)c(OC)c1 [isoeugenol],1.73,2.15,1.02 and 1.13,0.891,1.24 and 1.57,1.16,1.37,1.53,1.48,1.24
CC(=O)C(C)=O [diacetyl],1.33,0.875,0.901,1.05,1.49,0.894,1.06,1.3,0.887,1.4
C=C(C)C1CCC2=CC(=O)CC(C)C2(C)C1 (stereo not given) [amyl laurate],,1.37,,,,,,,,
CC12C=CCC1C1CCC3=CC(=O)CCC3(C)C1CC2 (stereo not given) [androstadienone],0.97,,0.799 and 0.99,1.18,0.803 and 1.05,1.57,1.16,1.04,0.867,0.85
CCCCCC(C)=O [2-heptanone],0.825,,2.16,1.34,1.22 and 0.552,0.503,1.26,0.878,0.962,0.892
CCCCCCC=O [heptaldehyde],0.993 and 0.813,0.916,0.992 and 1.35 and 0.954,0.384 and 1.03,,0.718 and 1.47,0.427 and 1.19,1.13 and 0.755,1.2 and 0.912,1.08 and 0.856
CC12C=CCC1C1CCC3CC(=O)CCC3(C)C1CC2 (stereo not given) [androstenone],1.38,,1.16,5.82,1.07,1.39,7.18,0.902,1.23,1.05
c1cnccn1 [pyrazine],1.14,1.01,0.689,0.839,0.743,0.996,0.896,1.5,1.04,1.23
CC(C)(O)CCCC1=CCC(C=O)CC1 (stereo not given) [lyral],,0.804,,,,,,,,
C=C(C)C1CC=CCC1 (stereo not given) [r-limonene],1.4 and 0.966,1.12,0.747 and 0.647,1.02 and 0.635,0.932 and 1.27 and 0.709,1.06 and 1.19,0.971 and 0.529,1.44 and 0.822,1.41 and 1.07,1.25 and 0.975
C=C(C)C1CC=C(C)C(=O)C1 (stereo not given) [r-carvone],1.04,0.932,0.697,1.1,0.931,0.959,0.935,1.45,1.12,1.07
CC(C)CC(=O)O [isovaleric acid],0.79,1.82,0.869,1.19,0.808,1.28,1.27,1.07,0.834,0.643
CCCCCCOC(=O)CCC [hexyl butyrate],0.923,0.866,1.26 and 0.728,0.946,1.09 and 0.741,0.831,0.995,0.926,0.784,0.875
CC1COCc2cc3c(cc21)C(C)(C)C(C)C3(C)C (stereo not given) [galaxolide],4.21,,1.15 and 3.11,0.818,5.64 and 3.8,4.26,0.914,4.53,4.07,3.41
CC(=O)OC1CC2CCC1(C)C2(C)C (stereo not given) [isobornyl acetate],0.914,1.46,1.18 and 0.923,0.881,0.984 and 0.981,0.991,1.26,1.05,0.858,0.978
CC(=O)c1ccccc1 [acetophenone],0.929,,1.14,1.23,1.01 and 0.691,0.679,1.21,0.785,0.931,0.81
CC1=NC(C)SC1C (stereo not given),0.947,,2.33,0.952,1.37 and 0.86,0.566,1.22,1.12,0.926,1.11
"CC1CCC(C(C)C)C(O)C1 (single isomer, unassigned; (-)) [(-)-menthol]",1.18,0.81,0.597,0.789,2.95,3.1,1.07,0.9,0.591,0.554
